Data as given in paper PMC6688661.
These are yes or no findings as the source states them, for the method shown. Binding calls can cover weak binding; strength is not graded here. Sequences can lack the tags named with a protein.

Biological target: T1, Schizosaccharomyces pombe Ubc7 (S. pombe) (UniProt O00102)
T1 sequence: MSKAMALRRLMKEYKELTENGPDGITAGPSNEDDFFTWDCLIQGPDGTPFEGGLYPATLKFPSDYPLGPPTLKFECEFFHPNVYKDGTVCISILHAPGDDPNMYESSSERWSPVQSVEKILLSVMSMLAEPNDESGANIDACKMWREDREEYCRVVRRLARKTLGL
Experiment: crystal structure; Ubc7 and U7BR mixed at 16 µM each, complex isolated by size-exclusion chromatography; hanging drop, 6.6 mg/ml complex, 100 mM Tris pH 8.0, 200 mM MgCl2, 30% PEG 4000, 18°C; 1.7 Å, one complex in the asymmetric unit; both purified

Substance: Schizosaccharomyces pombe Cue4 Ubc7-binding region (U7BR), residues 152-215 (S. pombe) (domain or fragment)
- binding: binds
